# Test results published in PubChem BioAssay AID248 (DTP/NCI, 2004).
# The list shows only some results of the screen, not a fair sample: it gathers tests that were run many times, whatever their T/C, doses with no T/C, and many T/C values between a quarter and a half above the control. Further doses and runs are listed elsewhere. T/C is the treated group as % of the vehicle group. Some doses have a count of surviving animals in place of a T/C: the source files T/C as zero there, which appears to mark a toxic dose or a test without result, not a measured value. Some doses without a T/C left all or most animals alive at the check, yet need not have been tolerated: survival well below the control is almost never listed, so the zero probably covers shortened survival too. Survivors were counted at the toxicity check, usually on the fifth day, unless a day is given; later deaths do not show. Schedules are NCI's codes, read here as Q, the interval in days (D) or hours (H), X, the number of doses. Some schedule codes hold Z or #, which are not explained here. Some doses were run more than once; the values are given in rising order. Where survival is the endpoint, this PubChem deposit counts one and a half times the control or more as active, and values a quarter to a half above the control carry no call in these data; other NCI protocols may use other cut-offs. Some T/C values carry the count of animals alive at the toxicity check (mostly the fifth day); where none is given, no animal had died by that day.
# System: L1210 leukemia ip in BDF1 mice, survival T/C
# Test: NCI In Vivo Anticancer Drug Screen. Data for tumor model L1210 Leukemia (intraperitoneal) in B6D2F1 (BDF1) mice
# Conditions: T/C endpoint: mean survival time, higher T/C = longer survival
# [1] = dose: 100.0 mg/kg/injection, schedule: Q01DX009 (ip), vehicle: Klucel (hydroxypropylcellulose) (HPC)
# [2] = dose: 100.0 mg/kg/injection, schedule: Q04DX003 (ip), vehicle: saline with Tween-80
# [3] = dose: 200.0 mg/kg/injection, schedule: Q04DX003 (ip), vehicle: saline with Tween-80
# [4] = dose: 400.0 mg/kg/injection, schedule: Q04DX003 (ip), vehicle: saline with Tween-80
# [5] = dose: 200.0 mg/kg/injection, schedule: Q04DX002 (ip), vehicle: saline with Tween-80
# [6] = dose: 400.0 mg/kg/injection, schedule: Q04DX002 (ip), vehicle: saline with Tween-80
# [7] = dose: 25.0 mg/kg/injection, schedule: Q01DX009 (ip), vehicle: carboxymethylcellulose (CMC)
# [8] = dose: 100.0 mg/kg/injection, schedule: Q01DX001 (ip), vehicle: carboxymethylcellulose (CMC)
# [9] = dose: 200.0 mg/kg/injection, schedule: Q01DX001 (ip), vehicle: carboxymethylcellulose (CMC)
# [10] = dose: 400.0 mg/kg/injection, schedule: Q01DX001 (ip), vehicle: carboxymethylcellulose (CMC)
compound,measurement,setting,value
CN(CCO)C1=C(N2CC2)C(=O)C(N(C)CCO)=C(N2CC2)C1=O,T/C,"dose: 0.19 mg/kg/injection, schedule: Q04DX003 (ip), vehicle: saline",133 % of control
same,T/C,"dose: 0.25 mg/kg/injection, schedule: Q01DX009 (ip), vehicle: saline",125 % of control
same,T/C,"dose: 0.5 mg/kg/injection, schedule: Q01DX009 (ip), vehicle: saline",131 and 144 % of control
same,T/C,"dose: 0.75 mg/kg/injection, schedule: Q04DX003 (ip), vehicle: saline",139 % of control
same,T/C,"dose: 1.0 mg/kg/injection, schedule: Q01DX001 (ip), vehicle: saline",126 % of control
CCCCCCCCCCCCCCCCOc1ccc(Sc2ccc([N+](=O)[O-])cc2)cc1,survivor count,"dose: 100.0 mg/kg/injection, schedule: Q01DX001 (ip), vehicle: Klucel (hydroxypropylcellulose) (HPC)",6 of 6
same,survivor count,"dose: 200.0 mg/kg/injection, schedule: Q01DX001 (ip), vehicle: Klucel (hydroxypropylcellulose) (HPC)",6 of 6
O=C(O)c1ccncc1C(=O)c1csc2ccccc12,survivor count,"dose: 200.0 mg/kg/injection, schedule: Q04DX003 (ip), vehicle: acetone",1 of 6
CC1(C)N=C(N)N=C(N)N1c1ccc(OCc2ccc(C(=O)Nc3cccc(S(=O)(=O)F)c3)cc2)c(Cl)c1,T/C,"dose: 25.0 mg/kg/injection, schedule: Q01DX009 (ip), vehicle: Klucel (hydroxypropylcellulose) (HPC)",133 % of control [5 of 6 alive]
same,T/C,[1],"95, 102, 164 % of control"
same,survivor count,[1],2 of 6
same,T/C,"dose: 100.0 mg/kg/injection, schedule: Q04DX003 (ip), vehicle: Klucel (hydroxypropylcellulose) (HPC)",133 and 146 % of control [5 of 6 alive]
same,survivor count,"dose: 200.0 mg/kg/injection, schedule: Q01DX009 (ip), vehicle: Klucel (hydroxypropylcellulose) (HPC)",6 of 6
same,T/C,"dose: 200.0 mg/kg/injection, schedule: Q04DX003 (ip), vehicle: Klucel (hydroxypropylcellulose) (HPC)",140 % of control
same,survivor count,"dose: 400.0 mg/kg/injection, schedule: Q01DX009 (ip), vehicle: Klucel (hydroxypropylcellulose) (HPC)",4 of 6
C1CCC2CCCN2CC1 (stereo not drawn),survivor count,[2],1 of 6
same,survivor count,[3],0 of 6
same,survivor count,[4],0 of 6
CN(C)CCCn1c2ccccc2c2cnccc21,survivor count,"dose: 200.0 mg/kg/injection, schedule: Q01DX009 (ip), vehicle: saline",0 of 6
same,survivor count,"dose: 200.0 mg/kg/injection, schedule: Q04DX003 (ip), vehicle: saline",0 of 6
same,survivor count,"dose: 400.0 mg/kg/injection, schedule: Q04DX003 (ip), vehicle: saline",0 of 6
Nc1ccc(OCCCCNC(=O)c2ccc(S(=O)(=O)F)cc2)c(Cl)c1,survivor count,"dose: 400.0 mg/kg/injection, schedule: Q01DX009 (ip), vehicle: saline with Tween-80",3 of 6
COC(=O)C(CCl)NC(=O)c1ccccc1 (stereo not drawn),survivor count,"dose: 400.0 mg/kg/injection, schedule: Q04DX003 (ip), vehicle: Klucel (hydroxypropylcellulose) (HPC)",3 of 6
COc1cc(N=C(N)N=C(N)N)c2ncccc2c1,survivor count,"dose: 150.0 mg/kg/injection, schedule: Q01DX001 (ip), vehicle: carboxymethylcellulose (CMC)",0 of 6
same,survivor count,"dose: 300.0 mg/kg/injection, schedule: Q01DX001 (ip), vehicle: carboxymethylcellulose (CMC)",0 of 6
CCN(CC)c1ccc(N)cc1,survivor count,"dose: 50.0 mg/kg/injection, schedule: Q04DX003 (ip), vehicle: saline with Tween-80",3 of 6
same,survivor count,[2],0 of 6
same,survivor count,[3],0 of 6
same,survivor count,[4],0 of 6
CCC(C)(C)c1ccc(Oc2ccccc2)c(N)c1,survivor count,"dose: 400.0 mg/kg/injection, schedule: Q01DX009 (ip), vehicle: other",4 of 6
CCOc1ccc(NC2CNC(=O)NC2=O)cc1 (stereo not drawn),survivor count,"dose: 100.0 mg/kg/injection, schedule: Q01DX Z (ip), vehicle: methylcellulose (MC)",5 of 6
N#CCC[P+](CCC#N)(CCC#N)CCCCCC[P+](CCC#N)(CCC#N)CCC#N,survivor count,[4],2 of 6
NC(=S)NN=C1CSSC1,survivor count,"dose: 25.0 mg/kg/injection, schedule: Q04DX003 (ip), vehicle: water",6 of 6
same,survivor count,"dose: 50.0 mg/kg/injection, schedule: Q01DX009 (ip), vehicle: water",4 of 6
same,survivor count,"dose: 50.0 mg/kg/injection, schedule: Q04DX003 (ip), vehicle: water",4 of 6
C#CC(OC(=O)NC(C(=O)OC)C(C)C)(c1ccccc1)c1ccccc1 (stereo not drawn),T/C,[5],125 % of control
same,T/C,[6],134 % of control
same,survivor count,[6],3 of 3
O=S1(=O)C2CCCC1CCC2,survivor count,"dose: 20.0 mg/kg/injection, schedule: Q01DX001 (ip), vehicle: saline",0 of 6 and 2 of 6
same,survivor count,"dose: 40.0 mg/kg/injection, schedule: Q01DX001 (ip), vehicle: saline",0 of 6
same,survivor count,"dose: 75.0 mg/kg/injection, schedule: Q01DX001 (ip), vehicle: saline",0 of 6
same,survivor count,"dose: 150.0 mg/kg/injection, schedule: Q01DX001 (ip), vehicle: saline",0 of 6
same,survivor count,"dose: 300.0 mg/kg/injection, schedule: Q01DX001 (ip), vehicle: saline",0 of 6
N#C[CH2][Sn]([I])([c]1ccccc1)[c]1ccccc1,survivor count,"dose: 6.25 mg/kg/injection, schedule: Q01DX009 (ip), vehicle: saline with Tween-80",0 of 3
same,survivor count,"dose: 12.5 mg/kg/injection, schedule: Q01DX009 (ip), vehicle: saline with Tween-80",0 of 3
same,survivor count,"dose: 25.0 mg/kg/injection, schedule: Q01DX009 (ip), vehicle: saline with Tween-80",0 of 3
same,survivor count,"dose: 50.0 mg/kg/injection, schedule: Q01DX009 (ip), vehicle: saline with Tween-80",0 of 3
same,survivor count,"dose: 100.0 mg/kg/injection, schedule: Q01DX009 (ip), vehicle: saline with Tween-80",0 of 3
same,survivor count,"dose: 100.0 mg/kg/injection, schedule: Q04DX002 (ip), vehicle: saline with Tween-80",0 of 3
same,survivor count,"dose: 200.0 mg/kg/injection, schedule: Q01DX009 (ip), vehicle: saline with Tween-80",0 of 3
same,survivor count,[5],0 of 3
same,survivor count,[6],0 of 3
COc1cc(C=Nc2ccc(-c3nc(C)sc3C)cc2)ccc1N(CCCl)CCCl,T/C,"dose: 3.0 mg/kg/injection, schedule: Q01DX009 (ip), vehicle: carboxymethylcellulose (CMC)",129 % of control
same,T/C,"dose: 4.6 mg/kg/injection, schedule: Q01DX009 (ip), vehicle: carboxymethylcellulose (CMC)",126 % of control
same,T/C,"dose: 7.0 mg/kg/injection, schedule: Q01DX009 (ip), vehicle: carboxymethylcellulose (CMC)",134 % of control [5 of 6 alive]
same,T/C,"dose: 7.3 mg/kg/injection, schedule: Q01DX001 (ip), vehicle: carboxymethylcellulose (CMC)",140 % of control
same,T/C,"dose: 11.0 mg/kg/injection, schedule: Q01DX001 (ip), vehicle: carboxymethylcellulose (CMC)",137 % of control
same,T/C,"dose: 11.0 mg/kg/injection, schedule: Q01DX009 (ip), vehicle: carboxymethylcellulose (CMC)",142 % of control
same,T/C,"dose: 11.1 mg/kg/injection, schedule: Q01DX009 (ip), vehicle: carboxymethylcellulose (CMC)",127 % of control [5 of 6 alive]
same,T/C,"dose: 16.6 mg/kg/injection, schedule: Q01DX009 (ip), vehicle: carboxymethylcellulose (CMC)",142 % of control
same,T/C,"dose: 25.0 mg/kg/injection, schedule: Q01DX001 (ip), vehicle: carboxymethylcellulose (CMC)",138 % of control
same,T/C,[7],146 % of control
same,survivor count,[7],5 of 6
same,T/C,"dose: 37.5 mg/kg/injection, schedule: Q01DX001 (ip), vehicle: carboxymethylcellulose (CMC)",142 % of control
same,survivor count,"dose: 37.5 mg/kg/injection, schedule: Q01DX009 (ip), vehicle: carboxymethylcellulose (CMC)",5 of 6
same,survivor count,[8],1 of 4
same,survivor count,[9],0 of 4
same,survivor count,[10],0 of 4
Fc1cc(N(CCCl)CCCl)ccc1CNCCCNCc1ccc(N(CCCl)CCCl)cc1F,survivor count,[8],0 of 4
same,survivor count,[9],0 of 4
same,survivor count,[10],0 of 4
Cc1c(C)c(O)c(Br)c(C)c1O (tested in a mixture with another compound),survivor count,[3],6 of 6
same,survivor count,[4],3 of 6
